42 sequences from PMC7819943, “Rice protein-binding microarrays: a tool to detect cis-acting elements near promoter regions in rice” can be followed below.

Amino acid sequences for entries named in this document (tags omitted).
UniProt Q0JBA9, entry or part of it: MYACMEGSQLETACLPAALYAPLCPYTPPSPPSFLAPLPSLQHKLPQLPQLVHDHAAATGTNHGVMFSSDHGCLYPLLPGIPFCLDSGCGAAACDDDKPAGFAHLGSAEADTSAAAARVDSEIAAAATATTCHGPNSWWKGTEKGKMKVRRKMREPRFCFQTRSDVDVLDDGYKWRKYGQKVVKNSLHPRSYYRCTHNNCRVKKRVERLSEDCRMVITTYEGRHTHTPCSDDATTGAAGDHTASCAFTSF

This is one part of the list.

The assay has as its target OsWRKY34 (Oryza sativa, UniProt Q0JBA9 1-250). The experiment in a line: protein-binding microarray (RPBM); PBS, 2% BSA, 51.3 ng/ul salmon testes DNA, 50 uM zinc acetate, 200 nM TF, 25 C, 1 h; high values mean tight binding. Conditions: protein: recombinant; tags: N-terminal polyhistidine and DsRed monomer fusion (pET32a); label: CyDye5-dUTP incorporated in the synthesized complementary strand; 3' TTTTT single-stranded linker to array surface; dsDNA, one strand shown. The method, boiled down: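 Ni–NTA purification followed expression in E. coli BL21-CodonPlus of transcription factors fused N-terminally to a polyhistidine tag and DsRed. At 200 nM in PBS with 2% BSA, salmon testes DNA and 50 µM zinc acetate, the protein was incubated for 1 h at 25 °C with a custom Agilent array that had been primer-extended with Cy5-dUTP and blocked with 2% BSA. After washing, the array was read on an Axon 4000B scanner. The binding signal is per-feature fluorescence intensity in arbitrary units.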
As to “CATCGCATCTACTGATTCTGCAGCGCAATATCAGTACCAACGGAGTCACCTAGTGCAG”, the binding signal is 8750 fluorescence intensity (a.u.).
As for “AATATCTTCTATAGGTTCGTGTTCGAGACGGATCATCACACGGAGTCACCTAGTGCAG”, the binding signal was 8600 fluorescence intensity (a.u.).
Turning to “CGTTCGCATCCACCACCAGTGCTCCGCCTGCCAGATCCATCGGAGTCACCTAGTGCAG”, the binding signal was 9140 fluorescence intensity (a.u.).
Take “TTGGGCTGTGTTATATCTTCTGAGTTGCACACCTGCATTGCGGAGTCACCTAGTGCAG”: the binding signal was 8210 fluorescence intensity (a.u.).
For “CAGCGATCGCGTGTGTTCTTGGTTCCAATTCGTCGCCTGACGGAGTCACCTAGTGCAG” the value was 8440 fluorescence intensity (a.u.); for “ATCTCTTTACCTCAATCTCGCATATATCCTAGCACCAACGCGGAGTCACCTAGTGCAG”, 8570 fluorescence intensity (a.u.); for “ATTCTTCTAATATATTGACGTGTAATTCTTCTGCGCATTCCGGAGTCACCTAGTGCAG”, 9640 fluorescence intensity (a.u.).
In the case of “GCTGACATGTGGGCCCCACGTTTTTTTTAAATTTTTTTGCCGGAGTCACCTAGTGCAG”, the binding signal is 9020 fluorescence intensity (a.u.).
As to “CTATCTGTGCACAACGTTTGACGGTTCGTCTTATTTAAAACGGAGTCACCTAGTGCAG”, the binding signal is 8640 fluorescence intensity (a.u.).
In the case of “GCCTTCAATCTTTAAAACACGTCGTTTTGCACAAAGTTCCCGGAGTCACCTAGTGCAG” it was 8770 fluorescence intensity (a.u.); in that of “CATATTTACTATCTTTGTACGATCTACATCTCTTCCAAATCGGAGTCACCTAGTGCAG”, 10800 fluorescence intensity (a.u.).
As for “TTCCTTTTGCTTGCTGCCTTCCGCCAGATTTTTCCTCTTCCGGAGTCACCTAGTGCAG”, the binding signal is 10100 fluorescence intensity (a.u.).
In the case of “TATAGATATCACGTATGTTGTTGCCTAGATCATCTGATTCCGGAGTCACCTAGTGCAG” it was 9110 fluorescence intensity (a.u.); in that of “CGACTCTTCCTCGCTTTCTCGCTTCTCTCTCTGCGCCACTCGGAGTCACCTAGTGCAG”, 12400 fluorescence intensity (a.u.); in that of “CTTCACACTTCATTCATCAAATCCAACGGCTCATATTCCTCGGAGTCACCTAGTGCAG”, 12700 fluorescence intensity (a.u.).
For “CACCCTGCCGGACTCCTCGCCTGTGTTGCACCAGCTCTCCCGGAGTCACCTAGTGCAG” the value was 8230 fluorescence intensity (a.u.).
In the case of “GTACTTGCCCGCGAGACTCCTACCACTCTCTGATCCCTATCGGAGTCACCTAGTGCAG” it was 9370 fluorescence intensity (a.u.); in that of “AAATGCGCGCCAATCCCTTTCTTGTTTGTTTAAACCTCTCCGGAGTCACCTAGTGCAG”, 10400 fluorescence intensity (a.u.).
Regarding “AGTCTTTACTCTCCTCAAATTCTTGTGTTTTTTCTGTGGTCGGAGTCACCTAGTGCAG”, the binding signal was 8930 fluorescence intensity (a.u.).
In the case of “AAGTTCCTATTTACCCAGCTGCATTCGCCGATTGTTTAGTCGGAGTCACCTAGTGCAG” it was 9320 fluorescence intensity (a.u.); in that of “ACCCAATACACAAGGACCGGCCCATTTATTCCCCAAAGGCCGGAGTCACCTAGTGCAG”, 8660 fluorescence intensity (a.u.).
In the case of “ATTATTCAGTGTTGCAGTATCAACTAAGAGCTCTATTTTCCGGAGTCACCTAGTGCAG” it was 8310 fluorescence intensity (a.u.); in that of “TTGACGCCGTTGACTTTTTAATACATGTTTGACCATTCGTCGGAGTCACCTAGTGCAG”, 44300 fluorescence intensity (a.u.); in that of “CTCTCTCGCGCGCGCTTGCCCCGCCATATATACCGGCGAGCGGAGTCACCTAGTGCAG”, 8690 fluorescence intensity (a.u.).
As to “TCCCATCGAAGCTCCATCCAAGGTTTTTCCTCCAATATTTCGGAGTCACCTAGTGCAG”, the binding signal was 11400 fluorescence intensity (a.u.).
In the case of “TGCTTGGGGATTCTGAATCTGTTCTTGTTGTCACTTGTCACGGAGTCACCTAGTGCAG” it was 8100 fluorescence intensity (a.u.).
For “AATCATTGGTCAACCCAACTTGATCATGGCAACCTAAAAGCGGAGTCACCTAGTGCAG”, the binding signal is 9020 fluorescence intensity (a.u.).
For “GTCCTGGTTTTTATCATCCAATGGTCCTGAGTTCTATAATCGGAGTCACCTAGTGCAG” the value was 8700 fluorescence intensity (a.u.); for “ACCCGCCCGCGTGCGCGCGCCCAACCGCAACATCCCTCGACGGAGTCACCTAGTGCAG”, 8250 fluorescence intensity (a.u.).
For “ACCATGTTGACTTTTTGCACATTTATAGAATCTTTTGGTACGGAGTCACCTAGTGCAG”, the binding signal is 21800 fluorescence intensity (a.u.).
For the sequence “ACCTCATATGTTTAATACAACTTTTTAGTTCTTCTTAATTCGGAGTCACCTAGTGCAG”, the binding signal was 11100 fluorescence intensity (a.u.).
Turning to “TGTTGTGTAAGAAGGCCACATAAAATTTTTCATATTTTTCCGGAGTCACCTAGTGCAG”, the binding signal was 9230 fluorescence intensity (a.u.).
For “AATTATGCTTCTGACTTCTGTTGTGGCTTGATTGATCCGTCGGAGTCACCTAGTGCAG”, the binding signal was 9430 fluorescence intensity (a.u.).
In the case of “TTTTGGACTTGATTTTTTTCTCAATTATAGTTTGTTTATTCGGAGTCACCTAGTGCAG” it was 8910 fluorescence intensity (a.u.); in that of “AATAATTGGCACTGCTCCATTAACGTTTTATTACTGACATCGGAGTCACCTAGTGCAG”, 9340 fluorescence intensity (a.u.).
As for “ACAGATCAAACTTAACCGTATCAGCTCGATCAATATCCAACGGAGTCACCTAGTGCAG”, the binding signal was 10900 fluorescence intensity (a.u.).
For “GTATCAGTGTATAAGTTTGAGCACCATTTTTCCATGATCTCGGAGTCACCTAGTGCAG” the value was 9200 fluorescence intensity (a.u.).
With “CCCATACTGACCGCATATATACCAGCAGTTTTCTTCTTTACGGAGTCACCTAGTGCAG”, the binding signal is 13700 fluorescence intensity (a.u.).
In the case of “TAAGACGAATGGTCAAATATGTGCTAAAAAGTCAACGGTGCGGAGTCACCTAGTGCAG” it was 13100 fluorescence intensity (a.u.); in that of “ACTCGATTCTATTCCACCGCTGCTATGACTCCCTGTGCTACGGAGTCACCTAGTGCAG”, 8860 fluorescence intensity (a.u.); in that of “TCTTTCTTTGTTGACTGCCAAACAATTCCCCTTCAGCTCACGGAGTCACCTAGTGCAG”, 9580 fluorescence intensity (a.u.).
For the sequence “CTCTTCCACCACCACCCGCCGCCGCCGCCTCCGCCGCGTGCGGAGTCACCTAGTGCAG”, the binding signal was 8160 fluorescence intensity (a.u.).
